# Reference: the supplement of paper PMC8728848
# Some of the results follow.
# What was measured:
# Assay in all cases: glycan array binding signal (z-score within array); higher = stronger binding
# Conditions in all cases: glycan notation: IUPAC condensed, linker removed
# [1] = target: GlcNAc(b1-3)Gal(b1-4)GlcNAc(b1-3)Gal(b1-4)GlcNAc(b1-3)GalNAc
# In short: (§1)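 Glycan array data came from 3228 arrays in the Consortium for Functional Glycomics database, and only arrays with an available protein sequence were kept. Glycan names were put into IUPAC-condensed notation, and columns mapping to the same glycan were averaged. The binding signal is a within-array Z-score, averaged across arrays of one protein sequence run at different concentrations or buffers and across linkers. A negative Z-score can be read as non-binding.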
# [2] = target: GlcNAc(b1-3)Gal(b1-4)GlcNAc(b1-3)GalNAc
# In short: as §1
# [3] = target: GlcNAc(b1-3)Gal(b1-4)GlcNAc(b1-3)[GlcNAc(b1-3)Gal(b1-4)GlcNAc(b1-3)]GalNAc
# In short: as §1
# [4] = target: GlcNAc(b1-3)Gal(b1-4)GlcNAc(b1-6)[Gal(b1-3)]GalNAc
# In short: as §1
# [5] = target: GlcNAc(b1-3)Gal(b1-4)GlcNAc(b1-6)[GlcNAc(b1-3)Gal(b1-3)]GalNAc
# In short: as §1
# [6] = target: GlcNAc(b1-3)Gal(b1-4)GlcNAc(b1-6)[GlcNAc(b1-3)]Gal(b1-4)GlcNAc
# In short: as §1
# [7] = target: GlcNAc(b1-3)GalNAc
# In short: as §1
# [8] = target: GlcNAc(b1-3)Man
# In short: as §1
# [9] = target: GlcNAc(b1-3)[GlcNAc(b1-4)][GlcNAc(b1-6)]GlcNAc
# In short: as §1
# [10] = target: GlcNAc(b1-3)[GlcNAc(b1-6)]Gal(b1-4)GlcNAc
# In short: as §1
# [11] = target: GlcNAc(b1-3)[GlcNAc(b1-6)]GalNAc
# In short: as §1
# [12] = target: GlcNAc(b1-4)Gal(b1-4)GlcNAc
# In short: as §1
# [13] = target: GlcNAc(b1-4)GlcNAc
# In short: as §1
# [14] = target: GlcNAc(b1-4)GlcNAc(b1-4)GlcNAc
# In short: as §1
# [15] = target: GlcNAc(b1-4)GlcNAc(b1-4)GlcNAc(b1-4)GlcNAc(b1-4)GlcNAc
# In short: as §1
# [16] = target: GlcNAc(b1-4)GlcNAc(b1-4)GlcNAc(b1-4)GlcNAc(b1-4)GlcNAc(b1-4)GlcNAc
# In short: as §1
# [17] = target: GlcNAc(b1-4)[GlcNAc(b1-6)]GalNAc
# In short: as §1
# [18] = target: GlcNAc(b1-6)Gal(b1-4)GlcNAc
# In short: as §1
# [19] = target: GlcNAc(b1-6)GalNAc
# In short: as §1
# [20] = target: GlcNAc6S(b1-3)Gal(b1-4)GlcNAc
# In short: as §1
# [21] = target: Kdn(a2-3)Gal(b1-3)GalNAc
# In short: as §1
# [22] = target: Kdn(a2-3)Gal(b1-3)GlcNAc
# In short: as §1
# [23] = target: Kdn(a2-3)Gal(b1-4)Glc
# In short: as §1
# [24] = target: Kdn(a2-3)Gal(b1-4)GlcNAc
# In short: as §1
# [25] = target: Kdn(a2-3)Gal(b1-4)[Fuc(a1-3)]GlcNAc
# In short: as §1
# [26] = target: Kdn(a2-6)Gal(b1-4)GlcNAc
# In short: as §1
# [27] = target: Man(a1-2)Man(a1-2)Man(a1-3)Man
# In short: as §1
# [28] = target: Man(a1-2)Man(a1-2)Man(a1-6)[Man(a1-3)]Man
# In short: as §1
# [29] = target: Man(a1-2)Man(a1-3)Man
# In short: as §1
# [30] = target: Man(a1-2)Man(a1-3)[Man(a1-2)Man(a1-6)]Man
# In short: as §1
# [31] = target: Man(a1-2)Man(a1-3)[Man(a1-2)Man(a1-6)]Man(a1-6)[Man(a1-2)Man(a1-2)Man(a1-3)]Man
# In short: as §1
# [32] = target: Man(a1-2)Man(a1-3)[Man(a1-2)Man(a1-6)]Man(a1-6)[Man(a1-2)Man(a1-2)Man(a1-3)]Man(b1-4)GlcNAc(b1-4)GlcNAc
# In short: as §1
# [33] = target: Man(a1-2)Man(a1-3)[Man(a1-6)]Man(a1-6)[Man(a1-2)Man(a1-3)]Man(b1-4)GlcNAc(b1-4)GlcNAc
# In short: as §1
# [34] = target: Man(a1-2)Man(a1-6)[Man(a1-3)]Man(a1-6)[Man(a1-2)Man(a1-2)Man(a1-3)]Man
# In short: as §1
# [35] = target: Man(a1-2)Man(a1-6)[Man(a1-3)]Man(a1-6)[Man(a1-2)Man(a1-2)Man(a1-3)]Man(b1-4)GlcNAc(b1-4)GlcNAc
# In short: as §1
# [36] = target: Man(a1-3)[Man(a1-6)]Man
# In short: as §1
# [37] = target: Man(a1-3)[Man(a1-6)]Man(a1-6)[Man(a1-2)Man(a1-3)]Man(b1-4)GlcNAc(b1-4)GlcNAc
# In short: as §1
# [38] = target: Man(a1-3)[Man(a1-6)]Man(a1-6)[Man(a1-3)]Man
# In short: as §1
# [39] = target: Man(a1-3)[Man(a1-6)]Man(a1-6)[Man(a1-3)]Man(b1-4)GlcNAc(b1-4)GlcNAc
# In short: as §1
# [40] = target: Man(a1-3)[Man(a1-6)]Man(b1-4)GlcNAc(b1-4)GlcNAc
# In short: as §1
# [41] = target: Man(a1-3)[Man(a1-6)]Man(b1-4)GlcNAc(b1-4)[Fuc(a1-6)]GlcNAc
# In short: as §1
# [42] = target: Man(a1-6)Man
# In short: as §1
# [43] = target: Man(b1-4)GlcNAc
# In short: as §1
# [44] = target: MurNAc(b1-4)GlcNAc
# In short: as §1
# [45] = target: Neu5Ac(a2-3)Gal
# In short: as §1
binder,measurement,setting,value
PhypaEULS3 (Physcomitrella patens) (protein) MLPVRLHCKADPNFNLAAVPGQGPVMVPFSPNDDFQVWYKDVTMSTRVKDETGSSAFSLINKATGQALRHAPEDLAQCLLADYDSNALDQTVLWTMSEDMGQGYCCIRLASQITRNLDVFRGDKKSGGVKEGSPVITFAWKKQDNQIWKMITAILEQKLISEEDLNSAVDHHHHHH,glycan array binding signal (z-score),[1],-0.078
same,glycan array binding signal (z-score),[2],-0.682
same,glycan array binding signal (z-score),[3],-1.96
same,glycan array binding signal (z-score),[4],-1.04
same,glycan array binding signal (z-score),[5],0.187
same,glycan array binding signal (z-score),[6],0.033
same,glycan array binding signal (z-score),[7],-0.8
same,glycan array binding signal (z-score),[8],0.008
same,glycan array binding signal (z-score),[9],-0.786
same,glycan array binding signal (z-score),[10],0.482
same,glycan array binding signal (z-score),[11],-1.17
same,glycan array binding signal (z-score),[12],1.55
same,glycan array binding signal (z-score),[13],-0.056
same,glycan array binding signal (z-score),[14],0.294
same,glycan array binding signal (z-score),[15],0.22
same,glycan array binding signal (z-score),[16],-0.245
same,glycan array binding signal (z-score),[17],-2.07
same,glycan array binding signal (z-score),[18],0.429
same,glycan array binding signal (z-score),[19],-0.697
same,glycan array binding signal (z-score),[20],1.26
same,glycan array binding signal (z-score),[21],0.229
same,glycan array binding signal (z-score),[22],-1.48
same,glycan array binding signal (z-score),[23],-0.521
same,glycan array binding signal (z-score),[24],-0.898
same,glycan array binding signal (z-score),[25],0.5
same,glycan array binding signal (z-score),[26],0.671
same,glycan array binding signal (z-score),[27],-0.183
same,glycan array binding signal (z-score),[28],0.733
same,glycan array binding signal (z-score),[29],-0.659
same,glycan array binding signal (z-score),[30],-0.808
same,glycan array binding signal (z-score),[31],-0.367
same,glycan array binding signal (z-score),[32],-0.557
same,glycan array binding signal (z-score),[33],0.497
same,glycan array binding signal (z-score),[34],-0.6
same,glycan array binding signal (z-score),[35],2.25
same,glycan array binding signal (z-score),[36],1.11
same,glycan array binding signal (z-score),[37],0.686
same,glycan array binding signal (z-score),[38],-2.6
same,glycan array binding signal (z-score),[39],-0.185
same,glycan array binding signal (z-score),[40],0.192
same,glycan array binding signal (z-score),[41],-0.08
same,glycan array binding signal (z-score),[42],-1.18
same,glycan array binding signal (z-score),[43],0.276
same,glycan array binding signal (z-score),[44],-0.675
same,glycan array binding signal (z-score),[45],-0.224

# An excerpt taken from the entries so far, for reference:
binder,measurement,setting,value
PhypaEULS3 (Physcomitrella patens) (protein) MLPVRLHCKADPNFNLAAVPGQGPVMVPFSPNDDFQVWYKDVTMSTRVKDETGSSAFSLINKATGQALRHAPEDLAQCLLADYDSNALDQTVLWTMSEDMGQGYCCIRLASQITRNLDVFRGDKKSGGVKEGSPVITFAWKKQDNQIWKMITAILEQKLISEEDLNSAVDHHHHHH,glycan array binding signal (z-score),[10],0.482
same,glycan array binding signal (z-score),[11],-1.17
same,glycan array binding signal (z-score),[12],1.55
same,glycan array binding signal (z-score),[13],-0.056
same,glycan array binding signal (z-score),[14],0.294
same,glycan array binding signal (z-score),[15],0.22
same,glycan array binding signal (z-score),[16],-0.245
same,glycan array binding signal (z-score),[17],-2.07
